We go through 1 molecule from paper PMC3212559, “Large-Scale Protein-Protein Interaction Analysis in Arabidopsis Mesophyll Protoplasts by Split Firefly Luciferase Complementation” (PLoS ONE, 2011).

Common to all, as to assay: split reporter; SFLC in living Arabidopsis mesophyll protoplasts: Aux/IAA-FLucN or MYB30-FLucN co-expressed with ARFCTD-FLucC or Aux/IAA-FLucC for 6 hr; 10 µg of each construct, 2×10^4 cells, 96-well plate, D-luciferin; relative activity standardised against ARF5CTD-FLucC + IAA28-FLucN
The target of assay [1] is T1, IAA6-FLucC (Arabidopsis, UniProt Q38824 1-189).
T1 construct: Arabidopsis Aux/IAA protein IAA6; also called Aux/IAA-FLucC; source: Arabidopsis mesophyll protoplasts, transfected, in living cells; not shown: FLucC (firefly luciferase aa 394-550)
T1 sequence (looked up): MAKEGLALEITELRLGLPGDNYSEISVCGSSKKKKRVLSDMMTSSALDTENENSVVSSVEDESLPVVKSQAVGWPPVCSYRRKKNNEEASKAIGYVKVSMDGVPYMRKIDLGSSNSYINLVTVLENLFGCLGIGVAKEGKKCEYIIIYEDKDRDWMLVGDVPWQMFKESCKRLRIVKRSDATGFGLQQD

In assay [2] the target is T2, IAA12-FLucC (Arabidopsis, UniProt Q38830 1-239).
T2 construct: Arabidopsis Aux/IAA protein IAA12; also called Aux/IAA-FLucC; source: Arabidopsis mesophyll protoplasts, transfected, in living cells; not shown: FLucC (firefly luciferase aa 394-550)
T2 sequence (looked up): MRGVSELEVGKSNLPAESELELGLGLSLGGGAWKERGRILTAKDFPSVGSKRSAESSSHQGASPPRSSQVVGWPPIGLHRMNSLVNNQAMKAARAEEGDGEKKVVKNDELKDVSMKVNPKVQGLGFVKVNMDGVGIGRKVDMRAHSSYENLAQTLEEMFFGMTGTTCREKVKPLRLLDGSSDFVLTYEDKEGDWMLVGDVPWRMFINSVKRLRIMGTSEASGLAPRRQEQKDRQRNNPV

The target in assay [3] is T3, IAA13-FLucC (Arabidopsis, UniProt Q38831 1-247).
T3 construct: Arabidopsis Aux/IAA protein IAA13; also called Aux/IAA-FLucC; source: Arabidopsis mesophyll protoplasts, transfected, in living cells; not shown: FLucC (firefly luciferase aa 394-550)
T3 sequence (looked up): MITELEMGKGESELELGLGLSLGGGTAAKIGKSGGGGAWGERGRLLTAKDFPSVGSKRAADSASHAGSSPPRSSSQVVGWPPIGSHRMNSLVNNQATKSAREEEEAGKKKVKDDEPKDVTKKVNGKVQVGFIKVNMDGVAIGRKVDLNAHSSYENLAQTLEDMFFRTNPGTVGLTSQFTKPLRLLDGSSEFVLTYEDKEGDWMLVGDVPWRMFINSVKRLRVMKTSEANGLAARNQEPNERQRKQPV

The target in assay [4] is T4, IAA28-FLucC (Arabidopsis, UniProt Q9XFM0 1-175).
T4 construct: Arabidopsis Aux/IAA protein IAA28; also called Aux/IAA-FLucC; source: Arabidopsis mesophyll protoplasts, transfected, in living cells; not shown: FLucC (firefly luciferase aa 394-550)
T4 sequence (looked up): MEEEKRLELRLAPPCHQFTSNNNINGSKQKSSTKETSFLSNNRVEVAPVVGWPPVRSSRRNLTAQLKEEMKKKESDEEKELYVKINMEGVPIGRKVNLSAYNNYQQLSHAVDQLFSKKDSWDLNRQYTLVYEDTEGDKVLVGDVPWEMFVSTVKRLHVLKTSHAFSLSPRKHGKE

For assay [5], the target named is T5, IAA3-FLucC (Arabidopsis, UniProt Q38822 1-189).
T5 construct: Arabidopsis Aux/IAA protein IAA3; also called Aux/IAA-FLucC; source: Arabidopsis mesophyll protoplasts, transfected, in living cells; not shown: FLucC (firefly luciferase aa 394-550)
T5 sequence (looked up): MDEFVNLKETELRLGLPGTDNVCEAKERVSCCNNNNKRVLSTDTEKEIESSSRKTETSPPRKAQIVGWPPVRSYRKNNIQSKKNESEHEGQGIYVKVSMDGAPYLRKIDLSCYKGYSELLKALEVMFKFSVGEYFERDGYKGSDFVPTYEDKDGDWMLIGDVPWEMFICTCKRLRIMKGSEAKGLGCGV

Assay [6] addresses T6, IAA1-FLucC (Arabidopsis, UniProt P49677 1-168).
T6 construct: Arabidopsis Aux/IAA protein IAA1; also called Aux/IAA-FLucC; source: Arabidopsis mesophyll protoplasts, transfected, in living cells; not shown: FLucC (firefly luciferase aa 394-550)
T6 sequence (looked up): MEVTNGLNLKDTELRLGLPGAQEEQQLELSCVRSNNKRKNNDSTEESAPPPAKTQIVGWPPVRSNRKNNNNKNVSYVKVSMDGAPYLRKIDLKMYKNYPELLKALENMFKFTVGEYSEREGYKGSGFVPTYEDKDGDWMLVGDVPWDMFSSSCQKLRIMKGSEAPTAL

These are yes or no findings as the source states them, for the method shown. Binding seen in cells or lysates may run through a third protein. Tags and fused reporters may be left off the sequences shown.

B1: MYB30-FLucN (natural protein, UniProt Q9SCU7 1-323, looked up)
chain: MVRPPCCDKGGVKKGPWTPEEDIILVTYIQEHGPGNWRAVPTNTGLLRCSKSCRLRWTNYLRPGIKRGNFTEHEEKMIVHLQALLGNRWAAIASYLPQRTDNDIKNYWNTHLKKKLNKVNQDSHQELDRSSLSSSPSSSSANSNSNISRGQWERRLQTDIHLAKKALSEALSPAVAPIITSTVTTTSSSAESRRSTSSASGFLRTQETSTTYASSTENIAKLLKGWVKNSPKTQNSADQIASTEVKEVIKSDDGKECAGAFQSFSEFDHSYQQAGVSPDHETKPDITGCCSNQSQWSLFEKWLFEDSGGQIGDILLDENTNFF
notes: transcription factor MYB30, the unrelated protein used as negative control; source: Arabidopsis mesophyll protoplasts, transfected, in living cells; not shown: FLucN (firefly luciferase aa 1-398)
On to B1, for which the binding entry in assay [1], in assay [2], in assay [3], in assay [4], in assay [5] and in assay [6] was “no binding (tested: relative luciferase activity below 0.1)” throughout.
